# Measurements from PMC3948108.
# Protein sequences, listed by entry. Tags and fused reporters are not part of them. Lines headed by an entry give the natural chain unless they say otherwise; changes in a name come on top.
# UniProt P27091: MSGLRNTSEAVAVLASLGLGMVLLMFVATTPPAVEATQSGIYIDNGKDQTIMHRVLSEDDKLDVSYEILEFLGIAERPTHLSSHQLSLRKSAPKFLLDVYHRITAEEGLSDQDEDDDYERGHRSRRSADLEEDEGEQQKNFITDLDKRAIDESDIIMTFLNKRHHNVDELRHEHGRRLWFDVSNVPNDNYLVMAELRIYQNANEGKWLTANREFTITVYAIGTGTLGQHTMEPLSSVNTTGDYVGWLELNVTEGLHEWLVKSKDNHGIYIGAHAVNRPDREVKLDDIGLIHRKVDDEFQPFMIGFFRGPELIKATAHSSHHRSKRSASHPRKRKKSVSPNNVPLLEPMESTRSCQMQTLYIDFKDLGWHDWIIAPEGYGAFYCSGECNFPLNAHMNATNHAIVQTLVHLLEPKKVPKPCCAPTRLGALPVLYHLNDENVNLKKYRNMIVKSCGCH
# UniProt P07713: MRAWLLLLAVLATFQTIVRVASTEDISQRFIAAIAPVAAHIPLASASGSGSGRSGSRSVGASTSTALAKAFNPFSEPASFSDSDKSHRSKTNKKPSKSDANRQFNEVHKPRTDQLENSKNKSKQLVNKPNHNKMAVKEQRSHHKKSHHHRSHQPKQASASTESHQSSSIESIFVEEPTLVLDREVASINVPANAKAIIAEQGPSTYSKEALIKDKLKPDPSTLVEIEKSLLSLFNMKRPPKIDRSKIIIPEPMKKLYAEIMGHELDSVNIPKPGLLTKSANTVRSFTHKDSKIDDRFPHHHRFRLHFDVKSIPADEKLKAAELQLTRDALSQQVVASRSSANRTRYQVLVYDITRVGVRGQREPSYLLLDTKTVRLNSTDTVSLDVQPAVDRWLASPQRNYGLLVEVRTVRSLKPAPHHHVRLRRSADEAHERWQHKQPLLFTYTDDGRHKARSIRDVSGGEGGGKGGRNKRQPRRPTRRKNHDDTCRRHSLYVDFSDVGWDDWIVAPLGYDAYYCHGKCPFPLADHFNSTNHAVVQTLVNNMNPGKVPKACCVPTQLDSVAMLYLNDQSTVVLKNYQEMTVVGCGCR
# These are yes or no findings as the source states them, for the method shown. In cells and extracts the contact can be indirect. Binding calls can cover weak binding; strength is not graded here.
# Target: GFP-tagged Gbb (Glass bottom boat) (Drosophila (D. melanogaster)) (UniProt P27091)
# Experiment: co-IP; lysate of 30 adult midguts coexpressing Dpp-HA and Gbb-GFP (Myo1A^ts, 29°C, 5 days); lysis buffer 50 mM Tris-HCl pH 8.0, 100 mM NaCl, 1% NP40, 10% glycerol, 1.5 mM EDTA; IP with rabbit anti-GFP antibody and protein A beads overnight at 4°C; western blot with anti-GFP and anti-HA
substance,measurement,value
HA-tagged Dpp (Decapentaplegic) (from UniProt P07713) (ligand),binding,binds
